{
  "source": "PubChem BioAssay AID485298",
  "about": "(National Center for Advancing Translational Sciences (NCATS), 2010)",
  "note": "Hit rate of the full screen: of about 320,000 compounds, about 740 (0.23%) were called active. Inconclusive results, whose numbers are uncertain, are shown with a selection of clear calls. Calls come from the whole dose curve; as a rule, active = well fitted activation curve with a large enough effect; inconclusive = small, poorly fitted or top-dose-only effect; inactive = no such curve, though single readings can be large or run the other way. Where the call is inconclusive, the potency comes from a doubtful curve fit. Potency is the fitted concentration of half-maximal effect.",
  "data": [
    {"test": "qHTS Assay for Small Molecule Inhibitors of Mitochondrial Division or Activators of Mitochondrial Fusion; note: nearly all actives have a fitted effect of over 45% in size", "conditions": "S. cerevisiae fusion-defective mutant growth rescue, CellTiterGlo 48 h; series mostly up to 46.1 µM", "outline": "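Luminescent cell viability in 1536-well qHTS format served as the measure of rescued growth in ts fusion-mutant S. cerevisiae cultured on non-fermentable YPEG for 48 hours at 37C.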", "values": [
      {"smiles": "Cc1ccc(-c2csc3ncnc(-n4nnc5ccccc54)c23)cc1C", "Potency": "inconclusive: 14.1 µM [activator, partial curve]"},
      {"smiles": "CN(C)C=NC(=O)c1ccc(N2CCN(c3ncc(C(F)(F)F)cc3Cl)CC2)cc1", "Potency": "inactive"},
      {"smiles": "CCOC(=O)C1=C(CC)Nc2ccccc2N/C1=N\\S(=O)(=O)c1ccc2ccccc2c1", "Potency": "inconclusive: 35.5 µM [activator, single point]"},
      {"smiles": "CC(C)(C)C(=O)CSc1nc(N)cc(=O)[nH]1", "Potency": "inconclusive: 28.2 µM [activator, single point]"},
      {"smiles": "CCCCNc1c(C(=O)OCC)c(C)nc2c1cnn2CC", "Potency": "active: 23.1 µM"},
      {"smiles": "O=C(c1ccc(F)cc1)N1CCOC(c2nc(-c3ccc(F)cc3)no2)C1", "note": "(stereo not drawn)", "Potency": "inactive"},
      {"smiles": "C=CCn1c(COc2cccc(C)c2)nnc1SCC(=O)NC(=O)NCc1ccco1", "Potency": "inactive"},
      {"smiles": "CC1CCN(c2nnc(-c3cccs3)c3ccccc23)CC1", "Potency": "inconclusive: 22.4 µM [activator, single point]"},
      {"smiles": "CC1CCC(n2c(=S)[nH]c3ccccc3c2=O)CC1", "note": "(stereo not drawn)", "Potency": "inconclusive: 17.8 µM [activator, partial curve]"},
      {"smiles": "CC(C)Sc1nnc(NC(=O)c2ccco2)s1", "Potency": "inconclusive: 12.6 µM [activator, single point]"},
      {"smiles": "Cc1ccc2c(C)c(C(=O)N3CCN(Cc4ccc5c(c4)OCO5)CC3)oc2c1C", "Potency": "inconclusive: 35.5 µM [activator, single point]"},
      {"smiles": "COc1ccc(N2CCN(S(=O)(=O)c3ccc(Br)s3)CC2)cc1", "Potency": "active: 4.47 µM"},
      {"smiles": "COc1ccc(Nc2nc(-c3ccccc3)c3ccccc3n2)cc1", "Potency": "active: 25.1 µM"},
      {"smiles": "CN(Cc1ccco1)S(=O)(=O)c1nnc(NC(=O)c2ccccc2Cl)s1", "Potency": "inconclusive: 15.8 µM [activator, partial curve]"},
      {"smiles": "CCC1(c2ccc(F)cc2)NC(=O)N(CC(=O)N(CCC#N)c2ccccc2)C1=O", "note": "(stereo not drawn)", "Potency": "inactive"},
      {"smiles": "COc1ccc(CNCc2cccc(Oc3ccccc3)c2)cc1", "Potency": "inconclusive: 6.31 µM [activator, partial curve]"},
      {"smiles": "COc1cccc(Cn2cnc3c(sc4nc(C)cc(C)c43)c2=O)c1", "Potency": "inactive"},
      {"smiles": "CCOc1ccc(S(=O)(=O)n2ccc(C)n2)c2ccccc12", "Potency": "inactive"},
      {"smiles": "COc1ccc(CC2=CC(=O)c3ccccc3C2=O)cc1", "Potency": "inactive"},
      {"smiles": "O=C(Nc1ccc2ccccc2c1)C(c1ccccc1)C1CCCC1", "note": "(stereo not drawn)", "Potency": "inconclusive: 11.2 µM [activator, partial curve]"},
      {"smiles": "CCn1c(SC(C)C)nnc1-c1cc(-c2ccccc2)sc1N", "Potency": "inconclusive: 17.8 µM [activator, partial curve]"},
      {"smiles": "COC(=O)[C@]1(Cc2ccccc2)N[C@H](c2ccc(-c3ccccc3)cc2)[C@@H]2C(=O)N(C)C(=O)[C@@H]21", "Potency": "inconclusive: 11.2 µM [activator, single point]"},
      {"smiles": "Cc1ccc(-c2noc(CCC(=O)N3CCCc4ccccc43)n2)cc1", "Potency": "inconclusive: 12.6 µM [activator, partial curve]"},
      {"smiles": "COc1cc(-c2nc3ccc4ccccc4c3c3c2CCC3)ccc1O", "Potency": "inconclusive: 12.6 µM [activator, partial curve]"},
      {"smiles": "CC(C)(C)c1ccc(-c2ncccc2O)cc1", "Potency": "inconclusive: 11.2 µM [activator, partial curve]"},
      {"smiles": "N#CC(C#N)=NNc1ccc([N+](=O)[O-])cc1", "Potency": "inactive"},
      {"smiles": "CNc1nc(C)nc(-n2nc(C)cc2C)n1", "Potency": "inactive"},
      {"smiles": "CCCCSc1nnc(-c2c[nH]c3ccccc23)n1C", "Potency": "inactive"},
      {"smiles": "Cc1ccc(-c2csc(NC(=O)C3=COCCO3)n2)cc1C", "Potency": "inconclusive: 17.8 µM [activator, single point]"},
      {"smiles": "CCC(C)NC(=O)CSC1=Nc2ccccc2C2=NC(c3ccccc3)C(=O)N12", "note": "(stereo not drawn)", "Potency": "inactive"},
      {"smiles": "Cc1ccc(C(=O)Nc2cc(C(C)C)c(O)c(C(C)C)c2)cc1", "Potency": "inconclusive: 22.4 µM [activator, partial curve]"},
      {"smiles": "O=C1c2ccsc2SCCN1Cc1c(Cl)cccc1Cl", "Potency": "inactive"},
      {"smiles": "FC(F)(F)c1cc(-c2ccccc2)nc(N2CCCCCC2)n1", "Potency": "inactive"},
      {"smiles": "CCN1C(=O)[C@H]2[C@@H](c3ccc(-c4ccc(F)cc4)cc3)N3CCCC[C@@]3(C(=O)OC)[C@H]2C1=O", "Potency": "inconclusive: 22.4 µM [activator, single point]"},
      {"smiles": "Cc1ccc(CNC(=O)C2CC(c3ccccc3C(F)(F)F)=NO2)cc1", "note": "(stereo not drawn)", "Potency": "inconclusive: 20 µM [activator, partial curve]"},
      {"smiles": "CC1CCCN(CCOc2cccc(Oc3ccccc3)c2)C1", "note": "(stereo not drawn)", "Potency": "inconclusive: 11.2 µM [activator, partial curve]"},
      {"smiles": "Cc1ccc(-n2c(SCc3ccc(C#N)cc3)nnc2-c2ccccn2)cc1", "Potency": "inactive"},
      {"smiles": "COC(=O)c1ccc(NC(=O)c2ccc(CN3CCOCC3)cc2)cc1", "Potency": "inactive"},
      {"smiles": "CCN(CC)CCCCNc1ncc2cc(-c3cc(OC)cc(OC)c3)c(NC(=O)NC(C)(C)C)nc2n1", "Potency": "inactive"},
      {"smiles": "Cc1c(C)n(CCCN(C)C)c2ncnc(NC3CCCCC3)c12", "Potency": "inconclusive: 35.5 µM [activator, single point]"},
      {"smiles": "Cc1c(C)n(C(=O)CN2CCN(c3ccccc3)CC2)c2ccccc12", "Potency": "inconclusive: 17.8 µM [activator, partial curve]"},
      {"smiles": "Cc1ccc(O)c(-c2[nH]ncc2C(=O)c2ccc(Br)cc2)c1", "Potency": "inconclusive: 22.4 µM [activator, single point]"},
      {"smiles": "O=C(Nc1ccccc1N1CCOCC1)c1ccc2ccccc2n1", "Potency": "inconclusive: 12.6 µM [activator, partial curve]"},
      {"smiles": "CCOc1cc(/C=N/NC(=O)COc2ccc(Cl)cc2)ccc1OS(=O)(=O)c1ccccc1", "Potency": "active: 12.6 µM"},
      {"smiles": "C1=C(c2ccccc2)CCN(c2ncnc3nc[nH]c23)C1", "Potency": "inactive"},
      {"smiles": "Cc1ccc(C)c(NC(=S)NCc2ccc3[nH]c4c(c3c2)CCCC4)c1", "Potency": "inconclusive: 17.8 µM [activator, single point]"},
      {"smiles": "CCN(CC)CCNC(=O)C(=O)Nc1ccc2c(c1)N(S(=O)(=O)c1cccs1)CCC2", "Potency": "inactive"},
      {"smiles": "COc1ccc2oc(C(=O)OCC(=O)NC(C)c3ccccc3)c(C)c2c1", "note": "(stereo not drawn)", "Potency": "inconclusive: 31.6 µM [activator, single point]"},
      {"smiles": "CSc1cccc(N2C(=O)C3CCCN3C2=S)c1", "note": "(stereo not drawn)", "Potency": "inactive"},
      {"smiles": "COc1ccc(-c2cc(C(=O)OC(C)C(=O)Nc3c(C)n(C)n(-c4ccccc4)c3=O)c3ccccc3n2)cc1", "note": "(stereo not drawn)", "Potency": "inconclusive: 35.5 µM [activator, single point]"},
      {"smiles": "Cc1cccc(Nc2nnc(SCC(=O)NC3CCCc4ccccc43)s2)c1C", "note": "(stereo not drawn)", "Potency": "inconclusive: 12.6 µM [activator, partial curve]"},
      {"smiles": "S=c1[nH]nc(-c2ccco2)n1/N=C/c1cccc(Cl)c1Cl", "Potency": "inactive"},
      {"smiles": "COC(=O)[C@@]12CCCCN1[C@H](c1ccc(-c3ccc(F)cc3)cc1)[C@@H]1C(=O)N(C)C(=O)[C@@H]12", "Potency": "active: 12.6 µM"},
      {"smiles": "Cc1ccc(OCCCn2cc(C#N)c3ccccc32)cc1", "Potency": "inconclusive: 17.8 µM [activator, partial curve]"},
      {"smiles": "O=C(CCN1C(=O)c2ccccc2C1=O)NCCC1=CCCCC1", "Potency": "inconclusive: 3.16 µM [activator, partial curve]"},
      {"smiles": "CCc1cc(C(=O)N2CCN(S(=O)(=O)c3cc(C)ccc3C)CC2)sc1C", "Potency": "inactive"},
      {"smiles": "O=C(CSc1nnc(-c2cc3ccccc3cc2O)n1Cc1ccco1)N1CCc2ccccc2C1", "Potency": "inconclusive: 15.8 µM [activator, partial curve]"},
      {"smiles": "NC1=NC2(CCCCC2)n2c(nc3ccccc32)N1", "Potency": "inconclusive: 0.562 µM [activator, full curve, poor fit]"},
      {"smiles": "Cc1cccc(Nc2nnc(SCC(=O)c3ccc(Br)s3)s2)c1C", "Potency": "inconclusive: 31.6 µM [activator, single point]"},
      {"smiles": "COC(=O)[C@]1(CC(C)C)N[C@H](c2ccc(-c3ccc4c(c3)OCO4)cc2)[C@@H]2C(=O)N(C)C(=O)[C@@H]21", "Potency": "inconclusive: 14.1 µM [activator, single point]"},
      {"smiles": "CN(c1ccccc1)S(=O)(=O)c1cccc(NC(=O)c2cc3ccccc3oc2=O)c1", "Potency": "inactive"},
      {"smiles": "CCN(CC)CCNC(=O)c1cc(-c2ccco2)nc2ccccc12", "Potency": "inconclusive: 31.6 µM [activator, single point]"},
      {"smiles": "O=C(Nc1ccc(F)cc1)c1cccnc1NCCc1ccccc1", "Potency": "active: 17.8 µM"},
      {"smiles": "CSc1ccccc1C(=O)N1CCN(c2cccc(Cl)c2)CC1", "Potency": "inactive"},
      {"smiles": "COC(=O)C1=C(C)N=c2s/c(=C3\\C(=O)Nc4ccccc43)c(=O)n2C1c1ccccc1", "note": "(stereo not drawn)", "Potency": "inconclusive: 7.08 µM [activator, partial curve]"},
      {"smiles": "COC(=O)C1=C(C)Nc2ncnn2C1c1ccccn1", "note": "(stereo not drawn)", "Potency": "inconclusive: 6.31 µM [activator, single point]"},
      {"smiles": "CNC(=S)N(C)/N=C1/C(=O)N(Cc2c(Cl)cccc2Cl)c2ccccc21", "Potency": "inconclusive: 12.6 µM [activator, single point]"},
      {"smiles": "O=C(Nc1nnc(-c2ccco2)o1)c1ccc2ccccc2c1", "Potency": "active: 12.6 µM"},
      {"smiles": "N#C/C(=C\\c1ccc(O)c(O)c1)C(=O)NCc1ccccc1", "Potency": "inconclusive: 13 µM [activator, partial curve]"},
      {"smiles": "COc1ccc(/C=N/n2c(C)nc3c([nH]c4ccccc43)c2=O)cc1CN1CCCC(C)(C)C1", "Potency": "inconclusive: 5.62 µM [activator, single point]"},
      {"smiles": "COc1ccc(CCNC(=S)NC2CCN(Cc3ccccc3)CC2)cc1", "Potency": "inactive"},
      {"smiles": "COc1ccc(C2CC(c3ccccc3)=NN2S(=O)(=O)c2ccccc2)c(OC)c1", "note": "(stereo not drawn)", "Potency": "inconclusive: 10 µM [activator, partial curve]"},
      {"smiles": "COc1cccc2cc(C(=O)OCc3ccccc3)c(=O)oc12", "Potency": "inactive"}
    ]}
  ]
}
